Measurements: publication PMC11516111
These are yes or no findings as the source states them, for the method shown. Binding seen in cells or lysates may run through a third protein. Some results given as binding are weak or reduced against the parent protein; the word gives no strength.

Protein sequences, listed by entry. Tags and fused reporters are not part of them. Residues count along the entry.
UniProt P35869, residues 11-848: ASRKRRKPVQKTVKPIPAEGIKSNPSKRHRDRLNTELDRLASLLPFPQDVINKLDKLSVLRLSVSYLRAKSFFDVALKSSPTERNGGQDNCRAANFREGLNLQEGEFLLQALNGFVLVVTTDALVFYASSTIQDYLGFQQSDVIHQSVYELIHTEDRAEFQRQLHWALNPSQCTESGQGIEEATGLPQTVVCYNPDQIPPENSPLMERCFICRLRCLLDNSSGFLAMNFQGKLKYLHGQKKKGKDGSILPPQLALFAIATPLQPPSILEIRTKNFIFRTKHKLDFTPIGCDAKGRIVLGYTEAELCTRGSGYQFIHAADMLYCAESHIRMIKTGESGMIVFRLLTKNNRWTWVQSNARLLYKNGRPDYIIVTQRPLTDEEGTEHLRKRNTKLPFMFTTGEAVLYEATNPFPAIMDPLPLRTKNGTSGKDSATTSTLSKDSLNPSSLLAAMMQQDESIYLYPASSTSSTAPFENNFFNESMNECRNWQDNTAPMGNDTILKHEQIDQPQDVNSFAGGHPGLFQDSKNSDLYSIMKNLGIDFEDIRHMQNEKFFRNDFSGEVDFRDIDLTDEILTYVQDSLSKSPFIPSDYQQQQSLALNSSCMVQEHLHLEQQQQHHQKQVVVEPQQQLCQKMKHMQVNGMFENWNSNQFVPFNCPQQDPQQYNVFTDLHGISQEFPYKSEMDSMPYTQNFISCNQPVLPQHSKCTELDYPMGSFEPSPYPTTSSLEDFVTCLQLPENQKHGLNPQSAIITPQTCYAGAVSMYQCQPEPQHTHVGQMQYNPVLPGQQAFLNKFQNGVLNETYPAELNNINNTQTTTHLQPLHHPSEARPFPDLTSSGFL

Molecular target: aryl hydrocarbon receptor (AHR), endogenous in Huh7 cells (human (endogenous in Huh7)) (UniProt P35869)
Experiment: co-IP; endogenous proteins in Huh7 cells (Figure S4A); details not told in the text shown

binding: binds
B1: sphingosine kinase 2 (SPHK2), endogenous in Huh7 cells (enzyme, UniProt Q9NRA0 1-654)
chain: MNGHLEAEEQQDQRPDQELTGSWGHGPRSTLVRAKAMAPPPPPLAASTPLLHGEFGSYPARGPRFALTLTSQALHIQRLRPKPEARPRGGLVPLAEVSGCCTLRSRSPSDSAAYFCIYTYPRGRRGARRRATRTFRADGAATYEENRAEAQRWATALTCLLRGLPLPGDGEITPDLLPRPPRLLLLVNPFGGRGLAWQWCKNHVLPMISEAGLSFNLIQTERQNHARELVQGLSLSEWDGIVTVSGDGLLHEVLNGLLDRPDWEEAVKMPVGILPCGSGNALAGAVNQHGGFEPALGLDLLLNCSLLLCRGGGHPLDLLSVTLASGSRCFSFLSVAWGFVSDVDIQSERFRALGSARFTLGTVLGLATLHTYRGRLSYLPATVEPASPTPAHSLPRAKSELTLTPDPAPPMAHSPLHRSVSDLPLPLPQPALASPGSPEPLPILSLNGGGPELAGDWGGAGDAPLSPDPLLSSPPGSPKAALHSPVSEGAPVIPPSSGLPLPTPDARVGASTCGPPDHLLPPLGTPLPPDWVTLEGDFVLMLAISPSHLGADLVAAPHARFDDGLVHLCWVRSGISRAALLRLFLAMERGSHFSLGCPQLGYAAARAFRLEPLTPRGVLTVDGEQVEYGPLQAQMHPGIGTLLTGPPGCPGREP
